In brackets after ≈: the same amount, converted by molar mass. At least one structure is not confirmed: it was looked up by name or label, or the drawing left a doubt.
System: Gram negative sp.
Assay: MIC/IC90 broad spectrum, Gram negative sp.
Assay type: cell-based
Conditions: 25 strains, 20 resistant
Protocol: Cell growth was tested using the Minimal Inhibitory Concentration (MIC) susceptibility tests by use of the microdilution broth method in accordance to the NCCLS Guidelines (NCCLS Guidelines, Methods for Dilution Antimicrobial Susceptibility Tests for Bacteria That Grow Aerobically; Approved Standard, Sixth Edition, Volume 23; Number 2). The minimum inhibitory concentration (MIC), is defined ad the lowest concentration of drug which inhibits growth of the test organism, in the sense that no visible growth is detected (total inhibition of growth). In example 2 MIC of the compounds used on fungal microorganisms was determined from the IC90 measurements according to NCCLS Guidelines.
A log phase culture of bacteria was diluted with fresh pre-warmed Mueller-Hinton medium and adjusted to a defined OD at 600 nm in order to give a final concentration of 1×10^4-5 bacteria/ml medium. The bacterial culture was transferred to microtiter-plates and culture was added to each well. Drug was added to the bacterial culture in the wells as two-fold dilution series of drug in order to give final concentrations ranging from 0.03 to 128 μg/ml. Trays were incubated at 37° C. by shaking in a robot analyzer, PowerWavex, software KC^4′ Kebo.Lab, Copenhagen, for 16 h and optical densities were measured at 600 nm during the incubation time in order to record growth curves. […]

Clc1ccc2c(c1)/C(=C/CCN1CCNCC1)c1ccccc1S2 [N-dealkyl-trans-clopenthixol, trans-1-(3-(2-chloro-thioxanthen-9-ylidene)propyl)piperazine]
IC90 (mean): 2 µg/mL (≈ 5.6 µM)

From patent US20100113430A1, “THIOXANTHENE DERIVATES USEFUL TO TREAT INFECTIOUS DISEASES” (BKG PHARMA APS, priority 2007, published 2010)
